For two substances, binding results are on record in PMC11304251.

Protein sequences, listed by entry. Tags and fused reporters are not part of them.
UniProt Q9CPX6: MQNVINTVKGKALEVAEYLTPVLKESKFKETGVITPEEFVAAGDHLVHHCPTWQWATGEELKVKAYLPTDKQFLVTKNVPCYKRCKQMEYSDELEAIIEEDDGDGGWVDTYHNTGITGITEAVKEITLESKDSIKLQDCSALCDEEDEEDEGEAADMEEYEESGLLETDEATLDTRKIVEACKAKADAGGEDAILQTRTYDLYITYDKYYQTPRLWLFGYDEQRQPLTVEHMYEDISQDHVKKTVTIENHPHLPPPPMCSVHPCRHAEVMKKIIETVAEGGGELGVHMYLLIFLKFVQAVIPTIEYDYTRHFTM
UniProt Q99K82: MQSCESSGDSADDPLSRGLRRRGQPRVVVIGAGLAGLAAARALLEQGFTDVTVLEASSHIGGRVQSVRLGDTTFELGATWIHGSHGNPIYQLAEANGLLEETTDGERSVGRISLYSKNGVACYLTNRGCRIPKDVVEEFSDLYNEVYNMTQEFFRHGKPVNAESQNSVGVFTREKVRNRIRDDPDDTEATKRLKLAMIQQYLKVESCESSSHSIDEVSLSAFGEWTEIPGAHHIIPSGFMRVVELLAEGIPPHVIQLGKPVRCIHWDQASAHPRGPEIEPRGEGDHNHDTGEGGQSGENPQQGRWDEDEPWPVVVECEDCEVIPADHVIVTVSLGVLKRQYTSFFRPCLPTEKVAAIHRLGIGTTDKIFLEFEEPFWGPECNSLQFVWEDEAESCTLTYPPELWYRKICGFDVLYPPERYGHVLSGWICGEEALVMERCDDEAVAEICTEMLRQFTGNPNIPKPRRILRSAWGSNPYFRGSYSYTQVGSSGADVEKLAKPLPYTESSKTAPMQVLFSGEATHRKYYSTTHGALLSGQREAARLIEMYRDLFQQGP

Changes are numbered by the printed parent chain. No constants are given. Whether binding was seen depends on the method and setting. In cells and extracts the contact can be indirect. Some entries that bind do so weakly or less than the wild type.

In experiment [1] the target is ATG5, wild type, overexpressed (UniProt Q99J83). The experiment can be described thus: co-IP; mTECs transfected with wild-type ATG5, ATG5 MMut or ATG5 SMut (E244A) plasmid.
Experiment [2] addresses T1, ATG5 multisite-mutated (MMut) (UniProt Q99J83).
T1 sequence: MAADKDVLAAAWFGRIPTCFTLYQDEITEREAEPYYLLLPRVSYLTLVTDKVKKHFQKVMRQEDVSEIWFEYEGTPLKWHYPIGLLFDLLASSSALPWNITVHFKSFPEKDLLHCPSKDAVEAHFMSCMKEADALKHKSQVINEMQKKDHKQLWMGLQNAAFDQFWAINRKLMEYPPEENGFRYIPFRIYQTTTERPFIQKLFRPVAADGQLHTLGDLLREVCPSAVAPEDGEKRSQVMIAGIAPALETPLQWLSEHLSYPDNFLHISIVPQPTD
The experiment is described as above.

For experiment [3], the target named is T2, ATG5 E244A single-site mutation (SMut) (UniProt Q99J83).
T2 sequence: T1 sequence with A2T, A3D, A9R, A10D, A11V, A160D, A161R, A241H, A246M
The description is as above.

Experiment [4] has as its target T3, ATG7 (mouse (endogenous in mTECs)) (UniProt Q9D906).
T3 sequence: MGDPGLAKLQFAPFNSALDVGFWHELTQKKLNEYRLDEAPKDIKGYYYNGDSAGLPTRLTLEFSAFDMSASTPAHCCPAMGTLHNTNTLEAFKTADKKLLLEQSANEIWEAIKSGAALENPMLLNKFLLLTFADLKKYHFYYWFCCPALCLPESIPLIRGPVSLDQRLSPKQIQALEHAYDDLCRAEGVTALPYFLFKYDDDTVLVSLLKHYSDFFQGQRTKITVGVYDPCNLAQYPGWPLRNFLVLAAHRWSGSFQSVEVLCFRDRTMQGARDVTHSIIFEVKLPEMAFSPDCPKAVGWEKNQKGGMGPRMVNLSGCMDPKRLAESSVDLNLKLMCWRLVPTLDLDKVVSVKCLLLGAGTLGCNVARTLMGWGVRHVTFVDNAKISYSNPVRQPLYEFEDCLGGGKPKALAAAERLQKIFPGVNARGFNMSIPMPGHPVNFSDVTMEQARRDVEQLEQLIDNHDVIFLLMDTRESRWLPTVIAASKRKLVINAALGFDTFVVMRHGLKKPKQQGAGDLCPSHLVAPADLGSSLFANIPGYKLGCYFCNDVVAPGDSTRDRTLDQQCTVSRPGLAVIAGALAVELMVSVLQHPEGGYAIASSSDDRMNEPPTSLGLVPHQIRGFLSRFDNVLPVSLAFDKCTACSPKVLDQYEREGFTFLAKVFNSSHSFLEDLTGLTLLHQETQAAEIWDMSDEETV
The experiment is described as follows: co-IP; co-immunoprecipitation in mTECs of SMOX with ATG5, ATG7 and ATG3; which protein was precipitated is not told.

The target of experiment [5] is ATG5 (mouse (endogenous in mTECs)) (UniProt Q99J83). The description is as above.
For experiment [6], the target named is ATG3 (mouse (endogenous in mTECs)) (UniProt Q9CPX6). Described as above.
Experiment [7] deals with ATG5, wild type, overexpressed (UniProt Q99J83). The experiment is described as follows: co-IP; mTECs overexpressing both ATG5 and SMOX, with or without TGF-β1.
The target is the same in experiment [8]. The experiment can be described thus: co-IP; HEK-293T cells overexpressing both ATG5 and SMOX, with or without TGF-β1 as indicated.

Take “spermine oxidase (SMOX) (from UniProt Q99K82 1-555) (enzyme)”: the binding result in experiment [1] is “binds”; in experiment [2], “no binding”; in experiment [3], “binds”; in experiment [4], “binds weakly”; in experiment [5] it was “binds”; in experiment [6], “binds weakly”.

As for “spermine oxidase (SMOX), overexpressed (from UniProt Q99K82 1-555) (enzyme)”, the binding entry in experiment [7] and in experiment [8] was “binds” throughout.
